Part of at least one peptide drawing is inferred or uncertain, most often the ends.
Tested on: SD male rat
Test: Determination of carotid artery pressure on rat (hypotensive activity)
Assay type: in vivo
Details: urethane-anesthetized SD male rat, 12.5 pmol/kg to 400 pmol/kg into the carotid artery; required amount of VIP-NH2 taken as 100 %

CC[C@H](C)[C@H](NC(=O)[C@H](CO)NC(=O)[C@H](CC(N)=O)NC(=O)[C@H](CC(C)C)NC(=O)[C@H](Cc1ccc(O)cc1)NC(=O)[C@H](CCCCN)NC(=O)[C@H](CCCCN)NC(=O)[C@@H](NC(=O)[C@H](C)NC(=O)[C@H](CCSC)NC(=O)[C@H](CCC(N)=O)NC(=O)[C@H](CCCCN)NC(=O)[C@H](CCCNC(=N)N)NC(=O)[C@H](CC(C)C)NC(=O)[C@H](CCCNC(=N)N)NC(=O)[C@@H](NC(=O)[C@H](Cc1ccc(O)cc1)NC(=O)[C@H](CC(N)=O)NC(=O)[C@H](CC(=O)O)NC(=O)[C@@H](NC(=O)[C@H](Cc1ccccc1)NC(=O)[C@@H](NC(=O)[C@H](C)NC(=O)[C@H](CC(=O)O)NC(=O)[C@H](CO)NC(=O)[C@@H](N)Cc1c[nH]cn1)C(C)C)[C@@H](C)O)[C@@H](C)O)C(C)C)C(=O)N[C@@H](CC(C)C)C(=O)N[C@@H](CC(N)=O)C(N)=O [VIP - NH2, reference compound]
B: specific activity (%) obtained by method B (amount required to produce a drop of 15 mmHg in blood pressure, relative to VIP-NH2): 100%

From patent publication US4822774A, “Physiologically active peptide” (Eisai Co., Ltd., priority 1986, dated 1989)
